Laboratory results: patent publication US20050053985A1
Results are given in words; binding and its absence hold for the method and conditions named. In cells and extracts the contact can be indirect. Some entries that bind do so weakly or less than the wild type. Tags and fused reporters may be left off the sequences shown. Each block holds one binder with its values, some of them ahead of it.

Tests used:
[1] = biological target: T1, HsSen54 (human), Q7Z6J9; experiment: co-purification (anti-Flag then Ni beads), SDS-PAGE, silver staining; conditions: remark: other sources report otherwise
T1 chain: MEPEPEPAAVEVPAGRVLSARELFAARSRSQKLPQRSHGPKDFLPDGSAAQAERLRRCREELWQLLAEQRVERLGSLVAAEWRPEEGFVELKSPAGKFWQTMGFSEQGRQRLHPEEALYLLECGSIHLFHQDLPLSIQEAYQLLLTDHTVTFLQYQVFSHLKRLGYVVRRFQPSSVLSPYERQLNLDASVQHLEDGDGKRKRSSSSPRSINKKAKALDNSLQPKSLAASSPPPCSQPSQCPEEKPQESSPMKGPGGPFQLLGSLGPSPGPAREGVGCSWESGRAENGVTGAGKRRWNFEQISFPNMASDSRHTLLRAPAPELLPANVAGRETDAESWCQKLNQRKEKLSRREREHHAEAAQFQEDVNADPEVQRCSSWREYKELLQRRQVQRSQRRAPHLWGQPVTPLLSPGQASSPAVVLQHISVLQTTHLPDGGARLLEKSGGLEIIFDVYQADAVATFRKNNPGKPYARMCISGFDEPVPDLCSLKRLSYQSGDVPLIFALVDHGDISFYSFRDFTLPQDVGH

[2] = biological target: T1, HsSen54 (human), Q7Z6J9; experiment: co-purification with the His-Flag-tagged bait from stable 293 cells (anti-Flag beads, then Ni beads); SDS-PAGE, silver staining; conditions: remark: other sources report otherwise
[3] = biological target: T2, HsSen34 (human) (UniProt Q9BSV6); experiment: as above
T2 sequence (looked up): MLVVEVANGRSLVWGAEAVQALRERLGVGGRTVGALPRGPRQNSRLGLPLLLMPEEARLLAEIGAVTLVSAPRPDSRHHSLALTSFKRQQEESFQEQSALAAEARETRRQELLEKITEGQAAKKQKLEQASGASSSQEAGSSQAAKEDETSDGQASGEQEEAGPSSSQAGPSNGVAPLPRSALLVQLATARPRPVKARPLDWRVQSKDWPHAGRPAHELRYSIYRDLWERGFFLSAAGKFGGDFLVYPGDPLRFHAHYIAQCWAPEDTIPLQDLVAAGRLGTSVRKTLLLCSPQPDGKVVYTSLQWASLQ

[4] = biological target: T3, HsClp1 (human) (UniProt Q92989); experiment: as above
T3 sequence (looked up): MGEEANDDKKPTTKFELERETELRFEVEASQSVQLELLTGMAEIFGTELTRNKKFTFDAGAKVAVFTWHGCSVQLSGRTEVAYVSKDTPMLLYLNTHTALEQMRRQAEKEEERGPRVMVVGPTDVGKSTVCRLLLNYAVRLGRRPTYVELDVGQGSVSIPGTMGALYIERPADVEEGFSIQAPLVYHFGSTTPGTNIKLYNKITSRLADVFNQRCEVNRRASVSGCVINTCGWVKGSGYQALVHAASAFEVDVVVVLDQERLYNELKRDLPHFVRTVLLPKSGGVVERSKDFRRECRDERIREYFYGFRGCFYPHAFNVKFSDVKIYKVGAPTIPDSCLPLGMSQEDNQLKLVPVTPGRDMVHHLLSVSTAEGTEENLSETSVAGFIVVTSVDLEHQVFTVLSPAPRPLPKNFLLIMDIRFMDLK

[5] = biological target: T4, HsSen2 (human) (UniProt Q8NCE0); experiment: as above
T4 sequence (looked up): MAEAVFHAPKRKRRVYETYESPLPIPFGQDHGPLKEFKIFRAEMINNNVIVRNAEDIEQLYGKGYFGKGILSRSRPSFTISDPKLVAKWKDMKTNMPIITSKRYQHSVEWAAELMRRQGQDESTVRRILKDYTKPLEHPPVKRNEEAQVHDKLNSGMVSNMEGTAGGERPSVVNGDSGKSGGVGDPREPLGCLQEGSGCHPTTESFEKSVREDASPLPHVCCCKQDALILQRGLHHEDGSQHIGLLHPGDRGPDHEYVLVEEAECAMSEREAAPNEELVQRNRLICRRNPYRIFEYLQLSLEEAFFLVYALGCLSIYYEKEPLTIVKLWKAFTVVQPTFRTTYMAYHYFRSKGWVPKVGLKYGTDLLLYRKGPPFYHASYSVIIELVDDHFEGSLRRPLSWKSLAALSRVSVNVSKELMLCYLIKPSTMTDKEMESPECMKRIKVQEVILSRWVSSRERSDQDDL

[6] = biological target: T2, HsSen34 (human); experiment: co-purification (anti-Flag then Ni beads), SDS-PAGE, silver staining
[7] = biological target: T4, HsSen2 (human); experiment: as above
[8] = biological target: T5, HsSen15 (human), Q8WW01; experiment: as above; conditions: remark: other sources report otherwise
T5 chain: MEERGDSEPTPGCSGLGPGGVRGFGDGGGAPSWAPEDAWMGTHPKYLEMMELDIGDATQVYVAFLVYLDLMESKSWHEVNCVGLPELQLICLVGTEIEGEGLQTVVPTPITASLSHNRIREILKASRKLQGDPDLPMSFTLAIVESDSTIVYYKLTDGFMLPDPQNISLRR

[9] = biological target: T5, HsSen15 (human), Q8WW01; experiment: co-purification with the His-Flag-tagged bait from stable 293 cells (anti-Flag beads, then Ni beads); SDS-PAGE, silver staining; conditions: remark: other sources report otherwise

binding [1]: binds
binding [2]: binds
B1: His-Flag-HsSen15, Q8WW01 1-171 (protein, human, UniProt Q8WW01 1-171, looked up, not shown: small tags and cut ends)
chain: MEERGDSEPTPGCSGLGPGGVRGFGDGGGAPSWAPEDAWMGTHPKYLEMMELDIGDATQVYVAFLVYLDLMESKSWHEVNCVGLPELQLICLVGTEIEGEGLQTVVPTPITASLSHNRIREILKASRKLQGDPDLPMSFTLAIVESDSTIVYYKLTDGFMLPDPQNISLRR

binding [3]: binds
binding [4]: binds
binding [5]: binds
binding [6]: binds
binding [7]: binds
B2: His-Flag-HsSen54 (protein, human, UniProt Q7Z6J9 1-526, looked up, not shown: small tags and cut ends)
chain: MEPEPEPAAVEVPAGRVLSARELFAARSRSQKLPQRSHGPKDFLPDGSAAQAERLRRCREELWQLLAEQRVERLGSLVAAEWRPEEGFVELKSPAGKFWQTMGFSEQGRQRLHPEEALYLLECGSIHLFHQDLPLSIQEAYQLLLTDHTVTFLQYQVFSHLKRLGYVVRRFQPSSVLSPYERQLNLDASVQHLEDGDGKRKRSSSSPRSINKKAKALDNSLQPKSLAASSPPPCSQPSQCPEEKPQESSPMKGPGGPFQLLGSLGPSPGPAREGVGCSWESGRAENGVTGAGKRRWNFEQISFPNMASDSRHTLLRAPAPELLPANVAGRETDAESWCQKLNQRKEKLSRREREHHAEAAQFQEDVNADPEVQRCSSWREYKELLQRRQVQRSQRRAPHLWGQPVTPLLSPGQASSPAVVLQHISVLQTTHLPDGGARLLEKSGGLEIIFDVYQADAVATFRKNNPGKPYARMCISGFDEPVPDLCSLKRLSYQSGDVPLIFALVDHGDISFYSFRDFTLPQDVGH

binding [8]: binds
binding [9]: binds
B3: His-Flag-HsSen54, Q7Z6J9 1-526 (protein, human, UniProt Q7Z6J9 1-526, looked up, not shown: small tags and cut ends)
chain: MEPEPEPAAVEVPAGRVLSARELFAARSRSQKLPQRSHGPKDFLPDGSAAQAERLRRCREELWQLLAEQRVERLGSLVAAEWRPEEGFVELKSPAGKFWQTMGFSEQGRQRLHPEEALYLLECGSIHLFHQDLPLSIQEAYQLLLTDHTVTFLQYQVFSHLKRLGYVVRRFQPSSVLSPYERQLNLDASVQHLEDGDGKRKRSSSSPRSINKKAKALDNSLQPKSLAASSPPPCSQPSQCPEEKPQESSPMKGPGGPFQLLGSLGPSPGPAREGVGCSWESGRAENGVTGAGKRRWNFEQISFPNMASDSRHTLLRAPAPELLPANVAGRETDAESWCQKLNQRKEKLSRREREHHAEAAQFQEDVNADPEVQRCSSWREYKELLQRRQVQRSQRRAPHLWGQPVTPLLSPGQASSPAVVLQHISVLQTTHLPDGGARLLEKSGGLEIIFDVYQADAVATFRKNNPGKPYARMCISGFDEPVPDLCSLKRLSYQSGDVPLIFALVDHGDISFYSFRDFTLPQDVGH
